For 64 compounds, AC50 results are on record in PubChem BioAssay AID493014 (National Center for Advancing Translational Sciences (NCATS), 2011).

The nature of the assay: qHTS Assay to Find Inhibitors of Chronic Active B-Cell Receptor Signaling. The conditions noted are these: ABC-DLBCL IkBa-CBG/CBR reporter, luminescence ratio (green luciferase fused to IkBa over red control in TMD8 lymphoma cells), 4 h. In short, it runs like this:
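Compounds up to 46 uM were incubated four hours with TMD8 cells whose green CBG68 luciferase is fused to IkappaBalpha; red CBR luminescence normalised the signal, and concentration-effect curves were fitted to fusion, red and ratio data.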
Background: Quantitative high-throughput screening tests each substance at several concentrations.

Setting [1] is: measured here: CBR red luminescence, cell number.
[2] abbreviates: measured here: IkBa-CBG green luminescence.

The other results are listed elsewhere or left out. Shown are side measurements of this screen, not its main read-out; they come without a call. The list favours compounds with an active or inconclusive main result. The note in brackets gives the kind of curve behind each potency; many fits are weak.

By AC50 is commonly meant the concentration at which the activity in the assay is half-maximal. For the compound `Nc1c(C(=O)NCc2ccc3c(c2)OCO3)nnn1-c1ccc(OC(F)(F)F)cc1`, under setting [1], the AC50 is 0.00517 µM [falling, full curve, poor fit].

On to `Cc1ccc(C)c(S(=O)(=O)NCc2ccc(C(=O)N3CCC(Cc4ccccc4)CC3)cc2)c1`, for which the AC50 under setting [1] was 25.1 µM [falling, single point].

In the case of `Cc1cc(NC(=O)CN(C)C)c([N+](=O)[O-])cc1C`, under setting [1], the AC50 is 35.5 µM [rising, single point].

`C#CC1(NC(=O)NC(C)C)CCCCC1`: the AC50 under setting [1] was 31.6 µM [rising, single point].

For the compound `Cc1nc2ccc(NC(=S)NCCCO)cc2nc1C`, under setting [1], the AC50 is 0.112 µM [rising, full curve, poor fit].

Turning to `COc1ccccc1OCCOCCOc1ccccc1Cl`, under setting [1], the AC50 is 0.58 µM [rising, full curve].

In the case of `Cc1ccc(NC(=S)NC(NC(=O)Cc2cccc3ccccc23)C(Cl)(Cl)Cl)cc1` (centres undefined), under setting [1], the AC50 was 0.517 µM [falling, full curve, poor fit].

As to `CSc1ccc(CN2CCN(C3CCCC3)C(CCO)C2)cc1` (centres undefined), under setting [1], the AC50 was 35.5 µM [falling, single point].

Regarding `CCc1nc(Nc2ccccc2)c2oc3ccccc3c2n1`, the AC50 under setting [1] was 0.708 µM [falling, full curve].

Take `CCOC(=O)c1c(NC(=O)CSc2nnnn2CC)sc(C)c1C`: the AC50 under setting [1] was 15.8 µM [falling, single point].

With `O=C(Nc1ccc(F)cc1)C1CCCN1S(=O)(=O)c1cccc2nsnc12` (centres undefined), the AC50 under setting [1] was 0.251 µM [rising, full curve, poor fit].

Consider `O=C(CCC(=O)N1CCSc2ccccc21)Nc1ccc(F)cc1`, for which the AC50 under setting [1] was 11.2 µM [falling, partial curve, poor fit].

With `CCOC(=O)c1cc(C(C)(C)C)oc1CNC(=O)c1c(C)oc2c1CCCC2`, the AC50 reads like this: under setting [1], 18.4 µM [falling, partial curve, poor fit]; under setting [2], 29.1 µM [rising, partial curve, poor fit].

Consider `Cc1ccc(NC(=O)CS(=O)CC(=O)Nc2ccc(N3CCOCC3)cc2)cc1Cl` (centres undefined), for which the concentration at half-maximal activity (AC50) under setting [1] was 31.6 µM [rising, single point].

For `Cc1cc(Oc2ccc(=O)n(C)n2)nc(Oc2ccc(=O)n(C)n2)n1`, under setting [1], the AC50 is 3.66 µM [rising, single point].

Consider `CS(=O)(=O)c1nc(-c2ccc(Br)cc2)cc(-c2ccccc2)c1C#N`, for which, under setting [1], the AC50 is 3.26 µM [falling, single point].

Take `O=C(O)/C=C/C(=O)c1ccc2c(c1)CCc1ccccc1-2`: the AC50 runs as follows: under setting [1], 29.1 µM [falling, partial curve, poor fit]; under setting [2], 3.66 µM [rising, partial curve, poor fit].

As to `COc1cccc(OCCCOc2ccc([N+](=O)[O-])cc2Cl)c1`, under setting [1], the AC50 is 35.5 µM [rising, single point].

For the compound `Cc1ccc(-n2ncc3c(Nc4ccccc4C)ncnc32)cc1`, the AC50 under setting [1] is 35.5 µM [falling, single point].

As to `Cc1ccc2nc(NC(=O)CN3C(=O)C4CC=CCC4C3=O)sc2c1` (centres undefined), under setting [1], the AC50 was 12.6 µM [falling, single point].

For the compound `O=C(Nc1cccc(Br)c1)c1ccc(CN2CCc3ccccc3C2)cc1`, the AC50 under setting [1] is 11.2 µM [falling, partial curve].

Consider `Cc1ccc(-c2nnc(CSc3nnc(COc4ccccc4)n3-c3ccc(C)cc3)o2)cc1`, for which, under setting [1], the AC50 is 35.5 µM [falling, single point].

`Cc1nn(-c2ccccc2)c(C)c1C(=O)OCC(=O)NC(=O)NC1CCCC1`: the AC50 under setting [1] is 1.78 µM [falling, partial curve].

For the compound `Cc1occc1C(=O)N/N=C/C=C\c1ccccc1[N+](=O)[O-]`, the AC50 under setting [1] is 11.2 µM [falling, partial curve].

Take `COc1ccc(CNC(=O)c2ccc3c(c2)NC(=O)C(C)S3)cc1` (centres undefined): the AC50 under setting [1] is 0.562 µM [falling, partial curve, poor fit].

Consider `CCC(=O)Nc1nonc1-c1nc2ccccc2n1Cc1ccccc1`, for which the AC50 under setting [1] is 16.4 µM [rising, single point].

On to `Cc1oc(CC(C)C)cc1C(=O)Nc1ccc(C(=O)O)cc1`, for which the AC50 under setting [1] is 8.91 µM [falling, partial curve].

With `O=C(c1cc(-c2ccc(Cl)c(Cl)c2)on1)N1CCCCC1`, the AC50 under setting [1] was 2.51 µM [falling, full curve].

As to `O=c1c2ccccc2nc(-c2ccc(F)cc2)n1NCc1ccccc1O`, under setting [1], the AC50 was 8.91 µM [falling, partial curve, poor fit].

As for `COc1ccccc1-c1cc(C(F)(F)F)nc(S(C)(=O)=O)n1`, the AC50 under setting [1] was 6.51 µM [falling, partial curve] and the AC50 under setting [2] is 5.17 µM [rising, partial curve, poor fit].

Take `COc1ccc(C2CC(c3ccccc3)=NN2c2ccc(S(N)(=O)=O)cc2)cc1OC` (centres undefined): the concentration at half-maximal activity (AC50) under setting [1] is 12.6 µM [falling, partial curve, poor fit].

For `CSc1nc(O)c(Cc2ccccc2)c(=O)[nH]1`, under setting [1], the AC50 is 4.47 µM [falling, partial curve, poor fit].

With `O=S(=O)(Nc1nc2ccccc2s1)c1ccc(Br)s1`, the AC50 under setting [1] is 11.6 µM [rising, partial curve, poor fit].

`CCN1CCN(CC(=O)n2c3c(c4ccccc42)CC(C)CC3)CC1` (centres undefined): the AC50 under setting [1] was 29.1 µM [falling, single point].

For the compound `C/C=C(\C)C(=O)N1CC2(CC(c3cccc(NC(=O)CCCCC)c3)=NO2)C[C@@H]1C(N)=O` (some centres undefined), under setting [1], the AC50 was 15.8 µM [falling, single point].

With `COC(=O)c1cc(-c2ccc(OC)c(OC)c2)c2c(=O)[nH]c(=O)n(C)c2n1`, under setting [1], the AC50 is 1.26 µM [rising, partial curve, poor fit].

`Cc1ccc(C(=O)O/N=C(\N)c2ccccn2)cc1Cl`: the AC50 under setting [1] is 3.16 µM [falling, partial curve, poor fit].

For `O=C(NCCc1ccccc1)c1ccc2c(c1)OCO2`, the AC50 under setting [1] was 5.01 µM [falling, partial curve].

For the compound `CC(=O)Nc1ccc(C(=O)N(C)C(C(=O)Nc2ccc(C)cc2)c2ccccn2)cc1` (centres undefined), the AC50 under setting [1] is 13 µM [rising, partial curve, poor fit].

Take `CC1CCCCN1c1ccc(N)cc1C(N)=O` (centres undefined): the AC50 under setting [1] was 35.5 µM [falling, single point].

For the compound `CCC(C)c1ccc(NC(=S)NN2CCOCC2)cc1` (centres undefined), the AC50 under setting [1] is 6.51 µM [rising, single point].

As to `CCC(CC)c1nnc(NC(=O)c2cc([N+](=O)[O-])ccc2N2CCCCC2)s1`, the AC50 under setting [1] was 0.103 µM [rising, full curve, poor fit].

On to `CC(C)C(OC(=O)c1ccccc1)c1nccc2ccccc12` (centres undefined), for which the AC50 under setting [1] is 11.2 µM [rising, single point].

As for `CC1C(=O)CCN(C(C)(C)C)C1C` (centres undefined), the AC50 under setting [1] is 31.6 µM [rising, partial curve, poor fit].

As for `CCCN(CC(=O)Nc1ccccc1C)C(=O)c1ccc(-c2ccc([N+](=O)[O-])cc2)o1`, the AC50 is 29.1 µM [rising, single point] under setting [1] and 18.4 µM [falling, partial curve, poor fit] under setting [2].

As for `CCC(C)c1ccc(NC(=O)C2=CC=CN3CCS(=O)(=O)N=C23)cc1` (centres undefined), the AC50 under setting [1] was 1.46 µM [rising, full curve, poor fit].

On to `C/C(=N/NC(=O)c1ccco1)c1cccnc1`, for which the AC50 under setting [1] is 31.6 µM [falling, single point].

Turning to `CCOC(=O)C(=O)Nc1cc(C)on1`, the AC50 under setting [1] is 0.0316 µM [falling, full curve, poor fit].

`C/C(=N\Nc1nc(C)cc(-c2ccccc2)n1)c1ccc(C)o1`: the AC50 under setting [1] was 0.891 µM [rising, full curve, poor fit].

Take `CC1CCC(NC(=O)CSc2nncs2)CC1` (centres undefined): the AC50 under setting [1] is 18.4 µM [rising, single point].

On to `CC1CCN(c2c([N+](=O)[O-])nn(-c3ccc4c(c3)OCCO4)[n+]2[O-])CC1`, for which the AC50 under setting [1] is 6.51 µM [rising, full curve, poor fit].

With `CCCn1c(SCC(=O)N2CCN(c3ccccc3)CC2)nc2ccccc2c1=O`, under setting [1], the AC50 was 0.82 µM [rising, partial curve, poor fit].

As for `C[C@H](CO)N1C[C@H](C)[C@H](CN(C)C(=O)Nc2ccc(F)cc2)Oc2ccc(NC(=O)NC3CCCCC3)cc2CC1=O`, under setting [1], the AC50 is 0.0058 µM [rising, full curve, poor fit].

Regarding `Cc1ccccc1C(=O)Nc1ccc2c(c1)CCCN2C(=O)c1cccs1`, the AC50 under setting [1] was 1.26 µM [falling, full curve, poor fit].

For `O=Cc1ccc(N2Cc3ccccc3C2)cc1`, the AC50 under setting [1] is 10 µM [rising, partial curve].

Regarding `COc1cccc(C(=O)NCCSc2ccc(Br)cc2)c1`, the AC50 under setting [1] was 35.5 µM [falling, single point].

Turning to `O=C(O)COc1ccc(Nc2ccccc2)cc1`, under setting [1], the AC50 was 12.6 µM [rising, partial curve, poor fit].

Consider `Cc1ccc(C2(O)CN(c3ccccc3C)C3=[N+]2CCS3)cc1` (centres undefined), for which the AC50 under setting [1] was 11.6 µM [falling, partial curve, poor fit].

As for `O=C(OCC(=O)N1CCCC1)c1c[nH]c2ccccc12`, the AC50 under setting [1] is 18.4 µM [falling, partial curve].

Take `O=C(CSc1nnc2ccc3ccccc3n12)c1ccc(F)cc1`: the AC50 under setting [1] is 9.2 µM [falling, partial curve].

Take `Cc1cc(C)n2c(SCC(=O)Nc3cc(S(=O)(=O)N(C)C)ccc3C)nnc2n1`: the AC50 under setting [1] was 13 µM [rising, partial curve].

Turning to `O=C(COc1ccc(Br)cc1)NCCCn1ccnc1`, the AC50 under setting [1] was 25.1 µM [rising, single point].

`O=C(N/N=C/c1ccc(OCc2ccc(F)cc2)cc1)c1ccccc1`: under setting [1], the AC50 is 20 µM [falling, partial curve, poor fit].

For `CC(=O)c1cccc(NC(=O)COC(=O)c2ccc(S(C)(=O)=O)c([N+](=O)[O-])c2)c1`, the AC50 under setting [1] was 15.8 µM [falling, partial curve] and the AC50 under setting [2] was 28.2 µM [rising, partial curve, poor fit].
